Measured values taken from patent publication US20240239786A1, “COMPOSITIONS AND METHODS FOR THE TREATMENT AND PREVENTION OF CANCER” (Yale University, priority 2021, published 2024).
Some results were stated once for a whole list of compounds, not compound by compound.

Tested on: PEO4 cells
Assay: Flow cytometric EdU incorporation (DNA synthesis) assay, PEO4
Type: cell-based
Conditions: 30 μM DB4 or 1 μM triapine
Experimental: Cells were plated for 24 hr and then treated with 50 μM compounds for 72 hr. For a positive control, cells were treated with 1 μM triapine for 72 hr. The percentage of cell survival was determined by the MTS cytotoxicity assay. […] Cells were treated with 50 μM compounds or 1 μM triapine for 24 hr. During the last hour, cells were pulse-labeled with EdU, stained with the Click-iT EdU Alexa Fluor 488 Assay Kit, counterstained with 7-AAD, and subsequently analyzed by flow cytometry. EdU-positive cells were gated to determine the percentage of the S phase cell population. The bivariate plots of Alexa Fluor 488 (EdU-positive) and PE-Cy5 (7-AAD-positive) are shown. […] Cells were treated with 50 μM compounds or 1 μM triapine for 24 hr. During the last hour, cells were pulse-labeled with EdU, stained with the Click-iT EdU Alexa Fluor 488 Assay Kit, counterstained with 7-AAD, and subsequently analyzed by flow cytometry. EdU-positive cells were gated to determine the percentage of the S phase cell population. The percentages of DNA synthesis in cells treated with each of 10 compounds and triapine relative to the DMSO-treated control is calculated and shown. […] Cells were extracted with 65% methanol for determination of each of dNTPs expressed as pmole/10^6 cells. […] The percentage of cell survival was determined by the MTS cytotoxicity assay. […]

Structure (SMILES)	G1 population
C=CCn1c(SCc2cccc(Cl)c2)nnc1C1CCN(Cc2nc3ccccc3s2)CC1 [DB4, 2-[(4-{4-allyl-5-[(3-chlorobenzyl)thio]-4H-1,2,4-triazol-3-yl}-1-piperidinyl)methyl]-1,3-benzothiazole]	30-35%
NC(=S)NN=Cc1ncccc1N [triapine, 3-aminopyridine-2-carboxaldehyde-thiosemicarbazone, reference compound]	30-35%
